In doi:10.1101/2021.02.11.430699:
Changes are numbered by the printed parent chain. No constants are given. Whether binding was seen depends on the method and setting. A result given as binding can be weak or reduced; the word gives no strength. Sequences can lack the tags named with a protein.

Tests used:
Experiment in all cases: two-hybrid
[1] = molecular target: T1, Pol31-W417A, LexA bait fusion (S. cerevisiae) (UniProt P46957)
T1 sequence: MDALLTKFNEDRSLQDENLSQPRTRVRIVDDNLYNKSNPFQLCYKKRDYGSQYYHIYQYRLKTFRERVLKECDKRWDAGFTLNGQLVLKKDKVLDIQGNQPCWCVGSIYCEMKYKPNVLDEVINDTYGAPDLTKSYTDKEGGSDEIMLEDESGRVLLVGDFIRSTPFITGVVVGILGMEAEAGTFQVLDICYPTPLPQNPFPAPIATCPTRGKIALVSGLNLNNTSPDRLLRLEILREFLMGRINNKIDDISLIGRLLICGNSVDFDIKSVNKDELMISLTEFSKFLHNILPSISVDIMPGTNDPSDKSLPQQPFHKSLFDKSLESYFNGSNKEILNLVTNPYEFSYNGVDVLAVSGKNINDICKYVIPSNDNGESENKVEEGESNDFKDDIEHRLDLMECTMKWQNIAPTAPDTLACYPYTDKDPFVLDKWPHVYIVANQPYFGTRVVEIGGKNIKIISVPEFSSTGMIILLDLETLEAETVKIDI

[2] = molecular target: T2, Pol31 wild type, LexA bait fusion (S. cerevisiae) (UniProt P46957)
T2 sequence: T1 sequence with A417W

[3] = molecular target: T3, Pol31-T415A, LexA bait fusion (S. cerevisiae) (UniProt P46957)
T3 sequence: T1 sequence with T415A, A417W

Measured: binding

Pol32 N-terminus, B42 prey fusion (S. cerevisiae) (domain or fragment)
binds: all assays above
